For 15 compounds, T/C and survivor count results are on record in PubChem BioAssay AID330 (DTP/NCI, 2004).

The experiment concerns P388 leukemia ip, CD2F1 mice, survival T/C. In words: NCI In Vivo Anticancer Drug Screen. Data for tumor model P388 Leukemia (intraperitoneal) in CD2F1 (CDF1) mice. The conditions noted are these: T/C endpoint: median survival time, higher T/C = longer survival.
Where [1] appears, read: dose: 6.25 mg/kg/injection, schedule: Q01DX009 (ip), vehicle: saline.
The mark [2] stands for this setting: dose: 12.5 mg/kg/injection, schedule: Q01DX009 (ip), vehicle: saline.
Setting [3] is: dose: 50.0 mg/kg/injection, schedule: Q01DX009 (ip), vehicle: saline.
Setting [4] is: dose: 100.0 mg/kg/injection, schedule: Q01DX009 (ip), vehicle: saline.
Setting [5] is: dose: 200.0 mg/kg/injection, schedule: Q01DX009 (ip), vehicle: saline.

The list shows only some results of the screen, not a fair sample: it gathers tests that were run many times, whatever their T/C, doses with no T/C, and many T/C values between a quarter and a half above the control. Other doses and runs of a compound stand elsewhere. T/C: endpoint of the treated group in % of that of the vehicle group. Some entries give survivors of the animals treated and no T/C: the source holds a T/C of zero for them, seemingly a mark for toxic or unscored doses. Some doses without a T/C left all or most animals alive at the check, yet need not have been tolerated: survival well below the control is almost never listed, so the zero probably covers shortened survival too. Counts of survivors are from the toxicity check (mostly the fifth day) where no day follows; animals may have died later. Schedules are NCI's codes, taken here to give the interval after Q, in days (D) or hours (H), and the number of doses after X. Some structures stand for samples that the source files as different forms (salt, stereo form or complex); doses refer to the form tested. Where survival is the endpoint, this PubChem deposit counts one and a half times the control or more as active, and values a quarter to a half above the control carry no call in these data; other NCI protocols may use other cut-offs.

In the case of `COc1cccc2c1C(=O)c1c(O)c3c(c(O)c1C2=O)C[C@@](O)(C(=O)CO)C[C@@H]3OC1CC([N+](C)(C)C)C(O)C(C)O1` (stereo partly drawn), the T/C is, setting by setting: (dose: 5.56 mg/kg/injection, schedule: Q01DX009 (ip), vehicle: water) 131 % of control; (dose: 6.25 mg/kg/injection, schedule: Q01DX009 (ip), vehicle: water) 142 % of control; (dose: 8.3 mg/kg/injection, schedule: Q01DX009 (ip), vehicle: water) 144 % of control; (dose: 10.8 mg/kg/injection, schedule: Q04DX003 (ip), vehicle: water) 131 % of control; (dose: 18.0 mg/kg/injection, schedule: Q04DX003 (ip), vehicle: water) 126 % of control; (dose: 25.0 mg/kg/injection, schedule: Q01DX001 (ip), vehicle: water) 131 % of control. Further, the survivor count was 4 of 6 (dose: 18.8 mg/kg/injection, schedule: Q01DX009 (ip), vehicle: water); 5 of 6 (dose: 25.0 mg/kg/injection, schedule: Q01DX009 (ip), vehicle: water); 3 of 6 (dose: 50.0 mg/kg/injection, schedule: Q01DX001 (ip), vehicle: water); 0 of 6 (dose: 50.0 mg/kg/injection, schedule: Q01DX009 (ip), vehicle: water); 0 of 6 (dose: 100.0 mg/kg/injection, schedule: Q01DX001 (ip), vehicle: water); 0 of 6 (dose: 100.0 mg/kg/injection, schedule: Q01DX009 (ip), vehicle: water). The survivor count by setting is: (dose: 200.0 mg/kg/injection, schedule: Q01DX001 (ip), vehicle: water) 0 of 6; (dose: 400.0 mg/kg/injection, schedule: Q01DX001 (ip), vehicle: water) 0 of 6.

Turning to `O=C(CC(=O)N1CCN=C1Nc1c(Cl)cccc1Cl)c1ccc(Cl)cc1`, the survivor count runs as follows: (dose: 50.0 mg/kg/injection, schedule: Q01DX009 (ip), vehicle: Klucel (hydroxypropylcellulose) (HPC)) 5 of 6; (dose: 100.0 mg/kg/injection, schedule: Q01DX009 (ip), vehicle: Klucel (hydroxypropylcellulose) (HPC)) 3 of 6; (dose: 200.0 mg/kg/injection, schedule: Q01DX009 (ip), vehicle: Klucel (hydroxypropylcellulose) (HPC)) 1 of 6.

Turning to `C=C1CC2(CCOc3ccccc32)OC1=O` (stereo not drawn), the survivor count (dose: 400.0 mg/kg/injection, schedule: Q04DX003 (ip), vehicle: saline with Tween-80) was 0 of 6.

Turning to `CC(CN(C)C)Nc1c2ccccc2nc2cccc([N+](=O)[O-])c12` (stereo not drawn), the survivor count runs as follows: (dose: 0.79 mg/kg/injection, schedule: Q01DX009 (ip), vehicle: saline) 5 of 6; (dose: 3.12 mg/kg/injection, schedule: Q01DX009 (ip), vehicle: saline) 0 of 6; under setting [1], 0 of 6; under setting [2], 0 of 6; under setting [3], 0 of 6; under setting [4], 0 of 6. Moreover, the survivor count under setting [5] is recorded as 0 of 6.

Regarding `CCCCCCCCCCCCCCCCSc1ccc(N=Cc2ccc(N(CC)CC#N)cc2)cc1`, the survivor count (dose: 200.0 mg/kg/injection, schedule: Q01DX009 (ip), vehicle: saline with Tween-80) is given as 6 of 6.

For the compound `Cc1cc(=O)[nH]c2c1C(=O)c1c(C)cc(=O)n(C)c1C2=O`, the survivor count reads like this: (dose: 0.12 mg/kg/injection, schedule: Q01DX009 (ip), vehicle: DMSO) 6 of 6; (dose: 0.25 mg/kg/injection, schedule: Q01DX009 (ip), vehicle: DMSO) 6 of 6; (dose: 0.5 mg/kg/injection, schedule: Q01DX009 (ip), vehicle: DMSO) 6 of 6; (dose: 1.0 mg/kg/injection, schedule: Q01DX009 (ip), vehicle: DMSO) 6 of 6; (dose: 2.0 mg/kg/injection, schedule: Q01DX009 (ip), vehicle: DMSO) 6 of 6; (dose: 4.0 mg/kg/injection, schedule: Q01DX009 (ip), vehicle: DMSO) 4 of 6. Besides, the survivor count (dose: 8.0 mg/kg/injection, schedule: Q01DX009 (ip), vehicle: DMSO) is recorded as 2 of 6.

With `Cc1cc(-c2ccc(N3C(=O)CC4(CCCCC4)C3=O)c(C)c2)ccc1N1C(=O)CC2(CCCCC2)C1=O`, for the setting “dose: 400.0 mg/kg/injection, schedule: Q04DX003 (ip), vehicle: Klucel (hydroxypropylcellulose) (HPC)”, the survivor count is 6 of 6.

For the compound `OCCN=Cc1ccccc1O.OCCN=Cc1ccccc1O.[Cu]`, the survivor count (dose: 100.0 mg/kg/injection, schedule: Q01DX005 (ip), vehicle: Klucel (hydroxypropylcellulose) (HPC)) is given as 1 of 6 and the survivor count (dose: 200.0 mg/kg/injection, schedule: Q01DX005 (ip), vehicle: Klucel (hydroxypropylcellulose) (HPC)) was 0 of 6.

Regarding `C[N+](C)(C)CCOS(C)(=O)=O`, the survivor count is listed as 6 of 6 (dose: 3.13 mg/kg/injection, schedule: Q01DX009 (ip), vehicle: Klucel (hydroxypropylcellulose) (HPC)); 1 of 6 under setting [1]; 6 of 6 (dose: 12.5 mg/kg/injection, schedule: Q01DX009 (ip), vehicle: Klucel (hydroxypropylcellulose) (HPC)); 3 of 6 under setting [2]; 4 of 6 (dose: 25.0 mg/kg/injection, schedule: Q01DX009 (ip), vehicle: Klucel (hydroxypropylcellulose) (HPC)); 3 of 6 (dose: 25.0 mg/kg/injection, schedule: Q01DX009 (ip), vehicle: saline). For the same compound, the survivor count under setting [3] is on record as 0 of 6.

As to `CCCCCCCCSC1=CC(=O)C(OC)=C(OC)C1=O`, the survivor count runs as follows: (dose: 2.0 mg/kg/injection, schedule: Q01DX009 (ip), vehicle: Klucel (hydroxypropylcellulose) (HPC)) 6 of 6; (dose: 16.0 mg/kg/injection, schedule: Q01DX009 (ip), vehicle: Klucel (hydroxypropylcellulose) (HPC)) 6 of 6; (dose: 32.0 mg/kg/injection, schedule: Q01DX009 (ip), vehicle: Klucel (hydroxypropylcellulose) (HPC)) 1 of 6.

For `CCCCCCCCCC[N+]1([O-])CCCCCC1`, the survivor count is reported as 5 of 6 under setting [3], 1 of 6 under setting [4] and 0 of 6 under setting [5].

Regarding `CC(C)N(c1ccnc(F)n1)C(C)C`, the survivor count is reported as 3 of 6 (dose: 120.0 mg/kg/injection, schedule: Q01DX005 (ip), vehicle: Klucel (hydroxypropylcellulose) (HPC)) and 0 of 6 (dose: 240.0 mg/kg/injection, schedule: Q01DX005 (ip), vehicle: Klucel (hydroxypropylcellulose) (HPC)).

As to `CC(C)=CCC(C)/C(=N\[N+](C)(C)C)c1ccccc1` (stereo not drawn), the survivor count runs as follows: under setting [2], 0 of 6; under setting [3], 0 of 6.

For the compound `Cc1ccc(C(=O)OC(CCN(C)C)c2ccccc2)cc1` (stereo not drawn), the survivor count under setting [5] is on record as 6 of 6.

On to `CC1=CCC(=O)C=[N+]1Cc1ccccc1`, for which the survivor count (dose: 25.0 mg/kg/injection, schedule: Q01DX005 (ip), vehicle: saline) was 0 of 6; the survivor count (dose: 50.0 mg/kg/injection, schedule: Q01DX005 (ip), vehicle: saline) is 0 of 6; the survivor count (dose: 100.0 mg/kg/injection, schedule: Q01DX005 (ip), vehicle: saline) is reported as 0 of 6; the survivor count (dose: 200.0 mg/kg/injection, schedule: Q01DX005 (ip), vehicle: saline) was 0 of 6.
